The experiment concerns the target T1, MBP-TTG1 (… TESTA GLABRA1) (Arabidopsis thaliana) (UniProt Q9XGN1).
T1 sequence: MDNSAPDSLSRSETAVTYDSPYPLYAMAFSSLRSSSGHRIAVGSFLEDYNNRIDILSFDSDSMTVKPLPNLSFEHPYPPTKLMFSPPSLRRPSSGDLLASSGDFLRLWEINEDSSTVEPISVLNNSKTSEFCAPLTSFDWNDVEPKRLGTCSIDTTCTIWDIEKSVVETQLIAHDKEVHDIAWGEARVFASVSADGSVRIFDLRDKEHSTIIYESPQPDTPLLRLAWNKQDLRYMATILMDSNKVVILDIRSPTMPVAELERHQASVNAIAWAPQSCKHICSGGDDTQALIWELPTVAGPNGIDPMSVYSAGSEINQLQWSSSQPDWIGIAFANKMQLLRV
The experiment is described as follows: affinity purification with mass spectrometry; recombinant MBP-TTG1 immobilized onto amylose resin, incubated with total protein extract of Col-0 siliques 4 days after pollination for 3 h at 4 °C; eluate analysed by LC-MS/MS; only the target purified.

No constants are given. Whether binding was seen depends on the method and setting. In cells and extracts the contact can be indirect. A yes stands for co-enrichment or nearness to the bait. Other partners may have been found. Where a sequence is shown, tags or fusion partners need not be part of it.

B1: SHAGGY-like kinases11 (SK11) (protein, UniProt P43288 1-405)
chain: MASVGIAPNPGARDSTGVDKLPEEMNDMKIRDDKEMEATVVDGNGTETGHIIVTTIGGRNGQPKQTISYMAERVVGHGSFGVVFQAKCLETGETVAIKKVLQDRRYKNRELQTMRLLDHPNVVSLKHCFFSTTEKDELYLNLVLEYVPETVHRVIKHYNKLNQRMPLIYVKLYTYQIFRALSYIHRCIGVCHRDIKPQNLLVNPHTHQVKLCDFGSAKVLVKGEPNISYICSRYYRAPELIFGATEYTTAIDVWSAGCVLAELLLGQPLFPGESGVDQLVEIIKVLGTPTREEIKCMNPNYTEFKFPQIKAHPWHKIFHKRMPPEAVDLVSRLLQYSPNLRSAALDTLVHPFFDELRDPNARLPNGRFLPPLFNFKPHELKGVPLEMVAKLVPEHARKQCPWLGL
Turning to B1, the binding entry is listed as “binds”.

Source of the values: article PMC5805785, “Site-specific phosphorylation of TRANSPARENT TESTA GLABRA1 mediates carbon partitioning in Arabidopsis seeds” (Nature Communications, 2018).
